These results are taken from paper PMC6446838.

Chains of the proteins cited; added tags and fusions are not shown.
UniProt P33176: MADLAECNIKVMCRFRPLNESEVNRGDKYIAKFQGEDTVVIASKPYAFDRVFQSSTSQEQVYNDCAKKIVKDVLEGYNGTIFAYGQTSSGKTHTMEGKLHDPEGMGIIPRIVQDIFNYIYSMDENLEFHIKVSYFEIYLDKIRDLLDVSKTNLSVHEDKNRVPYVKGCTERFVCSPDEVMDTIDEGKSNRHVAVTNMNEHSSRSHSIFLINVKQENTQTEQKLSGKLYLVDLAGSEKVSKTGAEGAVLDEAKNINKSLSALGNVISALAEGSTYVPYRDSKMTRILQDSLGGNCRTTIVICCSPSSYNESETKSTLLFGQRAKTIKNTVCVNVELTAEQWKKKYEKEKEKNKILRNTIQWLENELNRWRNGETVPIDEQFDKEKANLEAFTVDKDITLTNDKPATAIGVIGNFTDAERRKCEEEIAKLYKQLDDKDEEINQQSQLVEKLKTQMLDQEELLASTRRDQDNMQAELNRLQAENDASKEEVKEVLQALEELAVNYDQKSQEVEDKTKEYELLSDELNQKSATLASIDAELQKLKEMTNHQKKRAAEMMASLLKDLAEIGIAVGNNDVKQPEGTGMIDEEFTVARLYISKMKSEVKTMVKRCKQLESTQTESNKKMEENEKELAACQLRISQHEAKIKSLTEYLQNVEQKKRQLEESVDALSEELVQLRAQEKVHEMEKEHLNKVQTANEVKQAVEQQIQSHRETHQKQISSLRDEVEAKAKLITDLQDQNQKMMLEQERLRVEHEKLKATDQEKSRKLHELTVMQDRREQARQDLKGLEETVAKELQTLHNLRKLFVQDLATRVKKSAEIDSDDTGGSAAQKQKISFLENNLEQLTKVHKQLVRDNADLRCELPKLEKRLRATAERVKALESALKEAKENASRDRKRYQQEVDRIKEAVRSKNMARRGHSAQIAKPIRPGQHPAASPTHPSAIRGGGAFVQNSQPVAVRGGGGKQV
UniProt Q14244: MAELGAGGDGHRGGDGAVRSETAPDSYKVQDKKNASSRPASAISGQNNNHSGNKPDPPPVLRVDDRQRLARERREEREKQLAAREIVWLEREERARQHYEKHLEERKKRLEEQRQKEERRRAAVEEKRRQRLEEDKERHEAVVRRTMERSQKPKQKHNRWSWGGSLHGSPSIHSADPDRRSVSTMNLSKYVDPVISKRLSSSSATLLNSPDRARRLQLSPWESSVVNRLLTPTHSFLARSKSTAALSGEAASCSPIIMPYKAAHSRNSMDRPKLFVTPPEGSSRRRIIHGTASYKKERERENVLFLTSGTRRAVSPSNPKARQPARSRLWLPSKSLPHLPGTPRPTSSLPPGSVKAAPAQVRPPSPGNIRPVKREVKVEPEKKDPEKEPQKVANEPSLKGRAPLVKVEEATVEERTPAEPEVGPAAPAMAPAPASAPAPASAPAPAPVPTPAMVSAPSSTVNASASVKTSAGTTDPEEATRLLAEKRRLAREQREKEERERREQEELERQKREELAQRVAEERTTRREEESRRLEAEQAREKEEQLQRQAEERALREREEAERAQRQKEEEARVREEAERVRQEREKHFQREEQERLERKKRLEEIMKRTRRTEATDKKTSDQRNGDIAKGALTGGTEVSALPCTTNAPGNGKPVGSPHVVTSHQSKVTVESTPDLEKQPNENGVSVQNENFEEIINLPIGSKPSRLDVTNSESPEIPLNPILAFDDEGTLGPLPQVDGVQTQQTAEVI

No constants are given. Whether binding was seen depends on the method and setting. In cells and extracts the contact can be indirect. A yes stands for co-enrichment or nearness to the bait. Other partners may have been found.

Test [1] deals with full-length KIF5B-GFP with C-terminal Strep-tag (human) (UniProt P33176). The test is described as follows: affinity purification with mass spectrometry + pull-down; Strep-tagged kinesin-GFP purified from HEK293T lysate on StrepTactin beads, washed with a low-ionic-strength buffer; copurifying endogenous proteins found by mass spectrometry and Western blotting.
Test [2] shares this target. The test is described as follows: affinity purification with mass spectrometry + pull-down; as a2, but the ionic strength of the washing buffer was increased (high-salt wash buffer with 1.5 M NaCl).

As to “MAP7, endogenous in HEK293T cells (from UniProt Q14244 1-749)”, the binding entry in test [1] is on record as “binds”; in test [2], “binds weakly”.
